We go through 1 sequence from article PMC5996148.

Several values for one entry are separate records, joined by “and”; a condition that tells them apart may be missing. Equal entries are not always repeated. The list shows a part of the results. For some assays here: The exact form of the protein is not confirmed.

Some test systems named below: VPS16 (human); VPS25 (human); VPS28 (human); VPS29 (human); VPS33B (human); VPS36 (human); VPS37A (human); VPS41 (human); VPS4B (human); VPS8 (human); WDFY1 (human); WDFY3 (human); WDR1 (human).
Holding throughout (experiment): protein microarray (ProtoArray v5.0), streptavidin-Alexa Fluor 647
Common to all, as to details: 3'-biotin; 20 mM Tris (pH 7.5), 5 mM MgCl2, 100 mM KCl, 0.1% Tween-20, A/T-rich and random oligonucleotide blockers; temperature not stated; high values mean tight binding

Experiment [1] has as its system Vesicle-trafficking protein SEC22b (human).
Experiment [2] relates to Visinin-like protein 1 (human).
For experiment [3], the system named is Vitelline membrane outer layer protein 1 homolog (human).
Experiment [4] concerns WAS protein family homolog 1 (human).
The target in a further experiment is T1, WBP2 (UniProt Q969T9).
T1 sequence: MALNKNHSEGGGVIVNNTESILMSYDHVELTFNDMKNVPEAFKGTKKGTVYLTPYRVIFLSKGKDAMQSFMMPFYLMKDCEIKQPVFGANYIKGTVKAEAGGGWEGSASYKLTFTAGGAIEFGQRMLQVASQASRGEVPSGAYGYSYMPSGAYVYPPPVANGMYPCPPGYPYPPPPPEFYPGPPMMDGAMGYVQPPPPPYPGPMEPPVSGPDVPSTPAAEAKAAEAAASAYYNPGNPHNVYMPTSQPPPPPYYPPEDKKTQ

Experiment [5] has as its system WD repeat-containing protein 55 (human).
Experiment [6] has as its system WD repeat-containing protein mio (human).

Consider “GGGAGGCTGAGGCAGG [G4-1 biotinylated (PQS2)]”, for which the binding signal was -0.261 z-score in the experiment on VPS16 (human); -0.375 z-score in the experiment with VPS25 (human); -0.35 z-score in the experiment with VPS28 (human); -0.339 z-score and -0.346 z-score in the experiment on VPS29 (human); -0.33 z-score with VPS33B (human); -0.355 z-score in the experiment on VPS36 (human). Further, the binding signal with VPS37A (human) was -0.348 z-score; in the experiment with VPS41 (human), -0.299 z-score; with VPS4B (human) it was -0.334 z-score; in the experiment with VPS8 (human), -0.315 z-score; in experiment [1] it was -0.352 z-score; in experiment [2] it was -0.353 z-score. In addition, the binding signal in [3] is -0.319 z-score; in experiment [4] it was -0.36 z-score; with WBP2, -0.345 z-score; in experiment [5], -0.334 z-score; in [6], -0.236 z-score; in the experiment on WDFY1 (human), -0.347 z-score. The figures for the binding signal in the experiment on WDFY3 (human) and in the experiment with WDR1 (human) were -0.314 z-score and -0.337 z-score, respectively.
